PubChem BioAssay AID1259308 | NCATS, 2017

Test: 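Candidate targets for better recombinant protein yield in mammalian cells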 (primary screen)
Cells: human HEK293 embryonic kidney cells stably expressing firefly luciferase (HEK-CMV-Luc2-Hygro)
Reagent: single siRNA against human genes, 0.8 pmol siRNA per well
Duration: 72 h
Detection: 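Luciferase light (ONE-Glo) measured on one replicate plate set and viability (CellTiter-Glo) on the other, scaled to a negative control siRNA, with robust z-scores and luciferase per cell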
Direction: total luciferase, z-score: higher = more reporter protein produced
Rule for the call: 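Active when the median/MAD z-score for overall luciferase is greater than 3; a gene was taken forward for validation with new siRNAs if at least two of its three siRNAs passed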
Meaning of the calls: active = raised luciferase; inactive = no rise
This is one part, drawn at random, of about 59,000 reagents. Over the whole deposit, about 1,510 (2.6%) were called active. 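Calls use total luciferase alone and ignore viability, so some active siRNAs may act by altering cell number.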 Reagents against one gene are numbered here. Not all columns of the deposit are shown. No sequences are given here.

PARVA #1 → total luciferase, z-score = -0.438; call = inactive
PARVA #2 → total luciferase, z-score = 0.461; call = inactive
PARVA #3 → total luciferase, z-score = 1.77; call = inactive
APOB #1 → total luciferase, z-score = -0.0362; call = inactive
APOB #2 → total luciferase, z-score = -0.738; call = inactive
APOB #3 → total luciferase, z-score = -0.851; call = inactive
NFE2L1 #1 → total luciferase, z-score = -1.32; call = inactive
NFE2L1 #2 → total luciferase, z-score = 0.434; call = inactive
NFE2L1 #3 → total luciferase, z-score = 0.638; call = inactive
KCNK2 #1 → total luciferase, z-score = 0.29; call = inactive
KCNK2 #2 → total luciferase, z-score = -0.0247; call = inactive
KCNK2 #3 → total luciferase, z-score = 0.669; call = inactive

2 entries already listed, sorted by “total luciferase, z-score”, high to low.
KCNK2 #3 → total luciferase, z-score = 0.669; call = inactive
KCNK2 #2 → total luciferase, z-score = -0.0247; call = inactive
